These results are taken from PubChem BioAssay AID192 (DTP/NCI, 2004).

The list is a part of this screen's results and no random one: it is rich in T/C values a quarter to a half above the control, in often repeated tests (any T/C) and in doses without a T/C. Further doses and runs are listed elsewhere. T/C gives the treated animals as a percentage of the vehicle group. Some doses have a count of surviving animals in place of a T/C: the source holds a T/C of zero for them, seemingly a mark for toxic or unscored doses. Some doses without a T/C left all or most animals alive at the check, yet need not have been tolerated: survival well below the control is almost never listed, so the zero probably covers shortened survival too. Survivors were counted at the toxicity check, usually on the fifth day, unless a day is given; later deaths do not show. Schedule codes are those of the source, read here as Q, the interval in days (D) or hours (H), X, the number of doses. Marks such as (2×) say how often a value occurs here. Where survival is the endpoint, this PubChem deposit counts one and a half times the control or more as active, and values a quarter to a half above the control carry no call in these data; other NCI protocols may use other cut-offs. Some T/C values carry the count of animals alive at the toxicity check (mostly the fifth day); where none is given, no animal had died by that day.

The test system of the assay is BDF1 mice, B16 melanoma ip, median survival T/C. Briefly: NCI In Vivo Anticancer Drug Screen. Data for tumor model B16 Melanoma (intraperitoneal) in B6D2F1 (BDF1) mice. Particulars: T/C endpoint: median survival time, higher T/C = longer survival. In outline: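 Read-out: survival or tumor size, given as treated/control ratio. Controls received vehicle only; animals bore transplantable tumors.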

The mark [1] stands for this setting: dose: 100.0 mg/kg/injection, schedule: Q01DX009 (ip), vehicle: saline.
[2] abbreviates: dose: 200.0 mg/kg/injection, schedule: Q01DX009 (ip), vehicle: saline.
The mark [3] stands for this setting: dose: 400.0 mg/kg/injection, schedule: Q01DX009 (ip), vehicle: saline.
Where [4] appears, read: dose: 400.0 mg/kg/injection, schedule: Q01DX009 (ip), vehicle: Klucel (hydroxypropylcellulose) (HPC).
Where [5] appears, read: dose: 25.0 mg/kg/injection, schedule: Q01DX009 (ip), vehicle: Klucel (hydroxypropylcellulose) (HPC).
The mark [6] stands for this setting: dose: 50.0 mg/kg/injection, schedule: Q01DX009 (ip), vehicle: Klucel (hydroxypropylcellulose) (HPC).
Where [7] appears, read: dose: 200.0 mg/kg/injection, schedule: Q01DX009 (ip), vehicle: Klucel (hydroxypropylcellulose) (HPC).
Where [8] appears, read: dose: 10.0 mg/kg/injection, schedule: Q01DX009 (ip), vehicle: Klucel (hydroxypropylcellulose) (HPC).
The mark [9] stands for this setting: dose: 100.0 mg/kg/injection, schedule: Q01DX009 (ip), vehicle: Klucel (hydroxypropylcellulose) (HPC).
Setting [10] is: dose: 200.0 mg/kg/injection, schedule: Q01DX009 (ip), vehicle: saline with Tween-80.
Where [11] appears, read: dose: 100.0 mg/kg/injection, schedule: Q01DX009 (ip), vehicle: saline with Tween-80.
The mark [12] stands for this setting: dose: 400.0 mg/kg/injection, schedule: Q01DX009 (ip), vehicle: saline with Tween-80.

Regarding `CN(C)CCC=C1c2ccccc2C=Cc2ccccc21`, the T/C (dose: 3.12 mg/kg/injection, schedule: Q01DX009 (ip), vehicle: saline) was 126 % of control. Also, the survivor count by setting is: (dose: 12.5 mg/kg/injection, schedule: Q01DX009 (ip), vehicle: saline) 7 of 10; (dose: 50.0 mg/kg/injection, schedule: Q01DX009 (ip), vehicle: saline) 0 of 10; under setting [1], 0 of 10 (2×); under setting [2], 0 of 10 (2×); under setting [3], 0 of 10 (2×).

`NC(=O)C(N)=O`: under setting [4], the survivor count is 10 of 10.

Consider `O=C(CO)c1ccc([N+](=O)[O-])cc1`, for which the survivor count (dose: 6.25 mg/kg/injection, schedule: Q01DX009 (ip), vehicle: saline with Tween-80) is given as 10 of 10.

As for `COc1ccc(N=C(N)NC#N)cc1`, the survivor count under setting [4] is 10 of 10.

On to `C=Cc1cc(OC)c2c(c1)c(=O)oc1c2cc(OC)c2c(O)ccc(C3OC(C(C)O)C(O)C3O)c21` (stereo unspecified), for which the T/C reads like this: under setting [5], 135 % of control; under setting [6], 127 % of control; under setting [7], 136 % of control.

`[CH3][Hg][O]C(C)=O`: the survivor count runs as follows: (dose: 12.5 mg/kg/injection, schedule: Q01DX009 (ip), vehicle: Klucel (hydroxypropylcellulose) (HPC)) 7 of 10; under setting [5], 0 of 10.

Turning to `[Cl][Pt+2][Cl].[NH-]C1CCC1.[NH-]C1CCC1`, the T/C runs as follows: (dose: 4.0 mg/kg/injection, schedule: Q01DX009 (ip), vehicle: saline with Tween-80) 128 % of control; (dose: 8.0 mg/kg/injection, schedule: Q01DX009 (ip), vehicle: saline with Tween-80) 147 % of control; under setting [8], 130 % of control [9 of 10 alive]. Moreover, the survivor count runs as follows: (dose: 5.0 mg/kg/injection, schedule: Q01DX009 (ip), vehicle: Klucel (hydroxypropylcellulose) (HPC)) 10 of 10; under setting [8], 10 of 10; (dose: 16.0 mg/kg/injection, schedule: Q01DX009 (ip), vehicle: saline with Tween-80) 10 of 10 on day 6; (dose: 20.0 mg/kg/injection, schedule: Q01DX009 (ip), vehicle: Klucel (hydroxypropylcellulose) (HPC)) 10 of 10; (dose: 40.0 mg/kg/injection, schedule: Q01DX009 (ip), vehicle: Klucel (hydroxypropylcellulose) (HPC)) 10 of 10; (dose: 80.0 mg/kg/injection, schedule: Q01DX009 (ip), vehicle: Klucel (hydroxypropylcellulose) (HPC)) 9 of 10.

Take `CCC(CO)NC(=O)C1C=C2c3cccc4[nH]cc(c34)CC2N(C)C1` (stereo unspecified): the survivor count under setting [4] is 0 of 10.

Regarding `C=C1C(=O)OCC1(C(=O)OCC)C(=O)OCC`, the survivor count (dose: 32.0 mg/kg/injection, schedule: Q01DX009 (ip), vehicle: saline with Tween-80) is on record as 3 of 6 and the survivor count (dose: 64.0 mg/kg/injection, schedule: Q01DX009 (ip), vehicle: saline with Tween-80) is 1 of 6.

Turning to `COC1/C=C\C=C(/C)C(=O)Nc2cc3nc4ccc(Br)cc4oc-3c(c2=O)CC(C)CC(OC)C(O)C(C)/C=C(\C)C1OC(N)=O` (stereo unspecified), the survivor count (dose: 12.5 mg/kg/injection, schedule: Q01DX005 (ip), vehicle: other) was 0 of 6; the survivor count (dose: 25.0 mg/kg/injection, schedule: Q01DX005 (ip), vehicle: other) was 0 of 6; the survivor count (dose: 50.0 mg/kg/injection, schedule: Q01DX005 (ip), vehicle: other) was 0 of 6; the survivor count (dose: 100.0 mg/kg/injection, schedule: Q01DX005 (ip), vehicle: other) was 0 of 6; the survivor count (dose: 200.0 mg/kg/injection, schedule: Q01DX005 (ip), vehicle: other) is reported as 0 of 6.

For `CCOC(=O)c1c(N)sc2c1CCN(C)C2`, the survivor count is, setting by setting: under setting [6], 10 of 10; (dose: 80.0 mg/kg/injection, schedule: Q04DX003 (ip), vehicle: Klucel (hydroxypropylcellulose) (HPC)) 10 of 10.

As to `C=CCN1CCC(C(=O)CC)(c2ccccc2)CC1`, the survivor count under setting [9] was 10 of 10, the survivor count under setting [7] is given as 0 of 10 and the survivor count under setting [4] was 0 of 10.

Consider `O=[N+]([O-])c1cc(Cl)c(Cl)cc1NS(=O)(=O)c1ccccc1`, for which the survivor count (dose: 600.0 mg/kg/injection, schedule: Q01DX009 (ip), vehicle: saline with Tween-80) is given as 5 of 6.

For `CS(=O)(=O)c1cc(C(F)(F)F)cc([N+](=O)[O-])c1Cl`, the survivor count under setting [10] was 0 of 6.

Consider `CC1=CC(=O)[C@@H](O)[C@]2(C)[C@H]3[C@@]4(O)OC[C@]35[C@H]([C@@H](C)[C@H]4O)[C@@H](OC(=O)c3ccccc3)C(=O)O[C@@H]5C[C@@H]12`, for which the T/C is 130 % of control (dose: 0.5 mg/kg/injection, schedule: Q01DX009 (ip), vehicle: saline with Tween-80) and 139 % of control (dose: 1.0 mg/kg/injection, schedule: Q01DX009 (ip), vehicle: saline with Tween-80).

Regarding `CCCCCCCCCCCCc1ccc(CS)cc1`, the survivor count under setting [3] is listed as 9 of 10.

Turning to `CCC(C)C(NC(=O)c1ccccc1)C(=O)O` (stereo unspecified), the survivor count under setting [11] is 10 of 10, the survivor count under setting [10] is on record as 10 of 10 and the survivor count under setting [12] is 9 of 10.

As for `CCCCCCCCCCCCOc1ccccn1`, the survivor count under setting [9] is given as 10 of 10.

`CCCCNC(=O)Nc1ccc(C(=O)OCC(C)C)cc1`: the survivor count under setting [12] is 10 of 10.

Turning to `OCN(CO)c1nc(N(CO)CO)nc(N(CO)CO)n1`, the survivor count under setting [11] was 6 of 10; the survivor count under setting [12] is listed as 0 of 10; the survivor count (dose: 800.0 mg/kg/injection, schedule: Q01DX009 (ip), vehicle: saline with Tween-80) is 0 of 10.

For the molecule `NNCCc1ccccc1`, the survivor count by setting is: (dose: 6.25 mg/kg/injection, schedule: Q01DX009 (ip), vehicle: saline) 8 of 10; under setting [1], 3 of 10; under setting [2], 0 of 10; under setting [3], 0 of 10.

As to `Cc1nc2ccccc2nc1CI`, the survivor count is 5 of 6 (dose: 12.5 mg/kg/injection, schedule: Q01DX009 (ip), vehicle: saline with Tween-80); 5 of 6 (dose: 25.0 mg/kg/injection, schedule: Q01DX009 (ip), vehicle: saline with Tween-80); 0 of 6 (dose: 50.0 mg/kg/injection, schedule: Q01DX009 (ip), vehicle: saline with Tween-80).

For the molecule `CCN(CC)CCOc1ccc2c(c1)C(=O)c1cc(OCCN(CC)CC)ccc1-2`, the T/C by setting is: (dose: 36.0 mg/kg/injection, schedule: Q01DX009 (ip), vehicle: saline) 132 % of control; (dose: 60.0 mg/kg/injection, schedule: Q01DX009 (ip), vehicle: saline) 128 % of control.

As to `O=S(=O)(O)O.[Ga]`, under setting [1], the survivor count is given as 10 of 10.

Turning to `S=c1[nH]c2ccccc2[nH]1`, the survivor count is 10 of 10 under setting [6], 8 of 10 under setting [9], 4 of 10 under setting [7] and 0 of 10 under setting [4].

As for `Cc1ccc([N+](=O)[O-])c(O)c1[N+](=O)[O-]`, the survivor count under setting [9] was 10 of 10.

Regarding `CN(C)CCC(=O)c1ccccc1`, the survivor count (dose: 25.0 mg/kg/injection, schedule: Q01DX009 (ip), vehicle: saline) is recorded as 7 of 10.

For the molecule `CCSCCC1(CCC(C)C)C(=O)NC(=Nc2ccccc2)NC1=O` (stereo unspecified), the survivor count under setting [10] is given as 10 of 10.
